The values below come from PubChem BioAssay AID2685 (National Center for Advancing Translational Sciences (NCATS), 2010).

“And” between values parts separate entries of the source, which are not always exact repeats. Identical values can stand only once. This is one part of the list. These are further read-outs of the screen, such as a control signal, another cell line or another target. No call is given for them. Compounds called inactive in the main read-out are mostly missing here. Words in brackets tell the shape of the fitted curve; partial curves, single points and poor fits give uncertain potencies.

The test in a line: qHTS Assay for Lipid Storage Modulators in Drosophila S3 Cells.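 For cell number change: cells counted by Cell Tracker Red CMTPX staining in the red channel.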 Conditions: BODIPY lipid droplet fluorescence, 18-24 h; for cell number change: measured here: cell count max response, cells fed with added oleic acid. The gist of the method:
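Laser-scanning cytometry quantifies lipid droplet accumulation (500–530 nm total intensity; droplet/cell object ratio) in oleic acid-fed (400 uM added) Drosophila S3 cells treated with a concentration series. 20 uM Triacsin C defined 100% inhibition.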
In general terms: Quantitative high-throughput screening tests each substance at several concentrations.

The mark [1] stands for this setting: measured here: lipid fluorescence (Fed channel) AC50, cells fed with added oleic acid.
Setting [2] is: measured here: cell number channel AC50, cells fed with added oleic acid.

As for `O=C(OCc1ccco1)c1ccc(S(=O)(=O)N2CCCCC2)cc1`, the cell number change was -8.09%.

As to `COc1ccc(-n2c(N)c(Br)c(=O)[nH]c2=O)cc1`, the cell number change is -2.91%. For the same molecule, the AC50 (usually the midpoint of the concentration-response curve, whichever way the signal moves) under setting [1] was 0.461 µM [falling, full curve, poor fit].

Take `COc1cccc(-c2ccc3ncnc(NCc4cc(C)cs4)c3c2)c1`: the cell number change was 5.95% and 10.6%. Further, under setting [2], the half-maximal activity concentration (AC50) is 0.651 µM [falling, single point]. The concentration at half-maximal activity (AC50) under setting [1] was 6.51 µM [rising, partial curve, poor fit] and 29.1 µM [falling, single point].

Regarding `CCOc1ccccc1N(CC(=O)NCCSc1ccccn1)S(=O)(=O)c1ccc(C)cc1`, the cell number change was -23.1%.

For the molecule `Cc1nnc2c(NCCC(C)C)nc3ccccc3n12`, the cell number change came out at 20.4%.

For the molecule `CCn1ncc(Br)c1C(=O)Nc1ccc(-c2ccno2)cc1`, the cell number change stood at 30.1%. For the same molecule, the AC50 under setting [2] is 1.3 µM [rising, full curve, poor fit]. The concentration at half-maximal activity (AC50) under setting [1] is 29.1 µM [rising, single point].

Take `CCOC(=O)C1=C(O)CCn2c1nc1ccccc12`: under setting [1], the AC50 was 4.61 µM [falling, partial curve].

For `Cc1ccccc1NC(=O)c1ccc2nc(N3CCOCC3)sc2c1`, the cell number change amounted to 8.98%. Further, under setting [1], the half-maximal activity concentration (AC50) was 0.731 µM [rising, full curve].

For the molecule `O=C(NC1=NCCS1)C1CC(=O)N(c2ccc(Cl)cc2)C1` (centres undefined), the cell number change was 31.7%.

Consider `COc1ccc(-c2sc(Nc3ccccc3)n[n+]2-c2ccc(F)cc2)c(C)c1C`, for which the cell number change was found to be 16.2%. Besides, under setting [1], the half-maximal activity concentration (AC50) is 6.51 µM [rising, single point].

For `Cc1ccc(C)c(S(=O)(=O)N2CCN(C(=O)Cc3c(F)cccc3Cl)CC2)c1`, the cell number change was determined as 91.2%. Further, under setting [2], the AC50 was 9.2 µM [rising, partial curve].

As to `O=c1cc(N2CCCCC2)c(-c2ccccc2)nn1Cc1ccc(Cl)cc1Cl`, the cell number change is -22.1%. Besides, the AC50 under setting [1] was 23.1 µM [falling, single point].

`CCCc1nn(C)c(C(=O)Nc2cccc3ccccc23)c1Cl`: the cell number change came out at 26.9%. For the same molecule, under setting [1], the concentration at half-maximal activity (AC50) was 11.6 µM [rising, partial curve, poor fit].

`CC(C)(C)c1ccc(-c2noc(-c3ccno3)n2)cc1`: the cell number change was -33%. The AC50 under setting [2] was 29.1 µM [falling, single point]. For the same molecule, the AC50 under setting [1] is 29.1 µM [falling, single point].

In the case of `CCCN(CCC)CCCn1c(=O)[nH]c2ccccc21`, the cell number change came to 1.47%.

Regarding `Cc1sc2ncn(CC(=O)NCCCC(=O)Nc3ccc(C(C)C)cc3)c(=O)c2c1C`, the cell number change is 59.1%. Moreover, the AC50 under setting [2] was 25.9 µM [rising, single point].

Consider `CCN(CC)S(=O)(=O)c1cc(C(=O)OCC(=O)Nc2c(F)cccc2F)ccc1F`, for which the cell number change is -13.8%. The AC50 under setting [2] was 2.31 µM [falling, single point].

As to `CCC(=O)NCCc1nc2ccccc2n1CC`, the cell number change was -4.41%. Also, the concentration at half-maximal activity (AC50) under setting [1] is 6.51 µM [rising, single point].

With `CCOc1ccc(S(=O)(=O)Nc2ccccc2C(=O)N2CCCC2)cc1`, the cell number change is -25.9%. Moreover, the AC50 under setting [2] is 0.291 µM [falling, full curve, poor fit]. Also, under setting [1], the AC50 was 4.11 µM [falling, full curve, poor fit].

For the molecule `COc1cc2[nH]c(=S)n(C3CCCC3)c(=O)c2cc1OC`, the cell number change was -11.2%. Besides, under setting [1], the AC50 is 2.91 µM [rising, single point].

`COC(=O)CNc1cc(S(=O)(=O)N2CCCCC2)ccc1Oc1ccc(C(=O)OC)cc1`: the cell number change came to 29.5%. The AC50 under setting [2] is 0.651 µM [rising, full curve].

Regarding `CC(C)(C)c1ccc(Cn2nnc3c(=O)[nH]c(C4CCCN(C(=O)Cc5cccs5)C4)nc32)cc1` (centres undefined), the cell number change stood at 2.53%. The AC50 under setting [1] was 5.17 µM [rising, single point].

Consider `O=C(COc1ccc2c(-c3ccccc3)cc(=O)oc2c1)NCCCN1CCOCC1`, for which the cell number change was 11.6%. The AC50 under setting [1] was 29.1 µM [rising, single point].

Regarding `COc1ccc2nc(NNC(=O)COc3ccccc3)sc2c1`, the cell number change came to 15.7%. Also, under setting [1], the AC50 was 0.0291 µM [rising, full curve, poor fit].

With `Cc1ccc(C(=O)NCC(=O)N2CCN(c3ccccc3)CC2)cc1`, the cell number change is -14%. Under setting [1], the half-maximal activity concentration (AC50) was 18.4 µM [rising, single point].

Consider `CCOCCCN1C(=O)C(=O)N(CC(=O)N2c3ccccc3NC(=O)CC2C)C1=O` (centres undefined), for which the cell number change is -17.9%. In addition, the AC50 under setting [1] was 3.26 µM [rising, single point].

As for `CN=C1S/C(=C\c2ccc(N3CCOCC3)c(F)c2)C(=O)N1C`, the cell number change was 53.1%. The concentration at half-maximal activity (AC50) under setting [2] was 1.84 µM [rising, full curve]. The half-maximal activity concentration (AC50) under setting [1] was 4.11 µM [rising, partial curve].

On to `CC(=O)C1=C(C)OC2(O)c3ccccc3C(=O)C12O` (centres undefined), for which the cell number change is 20.4%.

With `CC(OC(=O)c1ccc2c(=O)n3c(nc2c1)CCC3)C(=O)Nc1ccc(C(N)=O)cc1` (centres undefined), the cell number change was -12.3%.

As to `CC(C)CCNC(=O)C(CC(C)C)N(Cc1ccc2c(c1)OCO2)C(=O)c1snc(C(N)=O)c1N` (centres undefined), the cell number change was -61.2%. Further, the AC50 under setting [2] is 29.1 µM [falling, single point]. The AC50 under setting [1] is 29.1 µM [falling, single point].

`O=C(O)CSc1cccc2cccnc12`: the cell number change is -0.664%. Under setting [1], the concentration at half-maximal activity (AC50) was 5.17 µM [rising, partial curve, poor fit].

On to `Nc1ccc(Br)c[n+]1Cc1cccc2cccnc12`, for which the cell number change was determined as 16.7%.

For `Cc1cccc(NC(=S)NNC(=O)c2ccccc2OC(F)F)c1`, the cell number change turned out to be 21.2%. In addition, the AC50 under setting [2] is 0.231 µM [rising, full curve, poor fit].

Regarding `Cc1cc(NC(=O)c2ccc(C)s2)n(-c2nc3ccccc3[nH]2)n1`, the cell number change was determined as 11.6%. Also, under setting [2], the AC50 was 0.116 µM [rising, full curve, poor fit]. Also, the AC50 under setting [1] is 0.184 µM [rising, full curve, poor fit].

Consider `O=C(CSc1ncnc2sccc12)Nc1ccc(S(=O)(=O)N2CCOCC2)cc1`, for which the AC50 under setting [1] is 16.4 µM [falling, partial curve].

For the molecule `COc1ccc(/C=C2\C(=O)N(c3c(Cl)cc(Cl)cc3Cl)N=C2NC(=O)c2cccc([N+](=O)[O-])c2)cc1`, the cell number change was found to be 19.4%. Also, under setting [2], the half-maximal activity concentration (AC50) was 0.116 µM [rising, full curve, poor fit].

In the case of `N#CCCSc1ccccc1NC(=O)c1ccc(S(=O)(=O)N2CCCC2)cc1`, the cell number change came out at 134%.

Consider `Cc1cccc(S(=O)(=O)Nc2ccc(-c3nc4ccc(C)cc4s3)cc2)c1`, for which the cell number change was -43.8%. For the same molecule, under setting [2], the AC50 was 29.1 µM [falling, single point]. For the same molecule, under setting [1], the AC50 is 29.1 µM [falling, single point].

Consider `CSc1nnc(-c2ccc(O)cc2)n1C`, for which the cell number change was 2.51%.
